Source: PubChem BioAssay AID504764 (Drosophila RNAi Screening Center, 2011)

Purpose: 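Genome-wide screen for regulators of Notch-driven gene expression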 (primary screen)
Cells: Drosophila Kc167 cells
Reagent: long dsRNA against Drosophila genes
Time to read-out: about 5 days (4 days dsRNA, then 24 h after transfection)
Treatment: transfection of constitutively active membrane-tethered Notch lacking the extracellular domain, read 24 h later
Read-out: 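Firefly luciferase from an E(spl)m3 reporter with active Notch, plus control-promoter and uninduced reporter wells for normalisation; unnormalised counts, duplicate wells a and b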
Direction: induced reporter light, run 1, well a and induced reporter light, run 1, well b: higher = more light from the Notch target reporter with active Notch; control promoter light, run 1, well a and control promoter light, run 1, well b: higher = more light from the viral control promoter (cell number, transfection, viability); uninduced reporter light, run 1, well a: higher = more light from the Notch target reporter without active Notch
Call rule: 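Wells with low control signal or poorly matching duplicates excluded; duplicates averaged; per source plate, z beyond ±2 for induced/control log2 ratio or beyond ±1.8 for induced/uninduced marks a hit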
Meaning of the calls: active = modifier hit (raised or lowered Notch signal); inactive = not a hit
The screen tested about 22,000 reagents; shown is an unselected part of those with a known target gene and a result. Over the whole deposit, 403 (1.9%) got an active call. 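Unnormalised raw counts per well; ratio z-scores behind the hit calls and whether each hit raises or lowers signal are not deposited.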 Unmarked entries are inactive. A plus sign joins genes that one reagent is predicted to hit. Not given: the amount of reagent.

The opening 4 entries, to show the layout:
no.	target gene	dsRNA	induced reporter light, run 1, well a	induced reporter light, run 1, well b	control promoter light, run 1, well a	control promoter light, run 1, well b	uninduced reporter light, run 1, well a
1	shakB	DRSC20492	1.15e5	99495	1.31e5	1.37e5	12110
2	shakB	DRSC20585	1.34e5	1.11e5	1.11e5	1.45e5	12240
3	TwdlX	DRSC19151	90290	99115	95615	1.05e5	8330
4	CG12547	DRSC07759	63375	1.00e5	1.21e5	1.01e5	6765

The list itself, from the first entry:
no.	target gene	dsRNA	induced reporter light, run 1, well a	induced reporter light, run 1, well b	control promoter light, run 1, well a	control promoter light, run 1, well b	uninduced reporter light, run 1, well a
1	shakB	DRSC20492	1.15e5	99495	1.31e5	1.37e5	12110
2	shakB	DRSC20585	1.34e5	1.11e5	1.11e5	1.45e5	12240
3	TwdlX	DRSC19151	90290	99115	95615	1.05e5	8330
4	CG12547	DRSC07759	63375	1.00e5	1.21e5	1.01e5	6765
5	CG10660	DRSC09769	1.25e5	97290	1.70e5	1.11e5	6765
6	CG33467	DRSC05525	1.82e5	1.80e5	2.22e5	2.01e5	13380
7	CG30105	DRSC05668	17070	18310	22460	24445	5790
8	Pfrx	DRSC18856	1.00e5	99630	98960	1.15e5	13885
9	Pfrx	DRSC19315	88710	87565	1.07e5	1.02e5	8965
10	Or49a	DRSC07493	1.01e5	1.07e5	1.25e5	1.14e5	8000
11	Upf2	DRSC18218	1.42e5 (active)	1.39e5	3.42e5	3.66e5	14210
12	CG31975 + ovm	DRSC00323	92875	67065	54780	31535	5690
13	CG11356	DRSC19401	1.13e5	1.16e5	1.95e5	1.24e5	8860
14	CG14456	DRSC11713	1.19e5	1.09e5	1.14e5	1.24e5	7415
15	goe	DRSC19345	89210	68385	90680	73940	9732
16	CG11839	DRSC14398	1.67e5	1.18e5	1.76e5	1.57e5	10500
17	Inx7 + cm	DRSC18753	2.45e5	2.06e5	2.76e5	2.45e5	18065
18	CG33332	DRSC15504	2.05e5	2.45e5	2.48e5	2.45e5	20990
19	HP6	DRSC00471	94560	77895	1.17e5	87855	7315
20	TfIIFbeta	DRSC16884	42560	58215	38120	36280	4185
21	CG7730	DRSC10909	1.03e5	1.45e5	64990	73480	9020
22	CG15522	DRSC15059	1.06e5	83580	1.34e5	1.52e5	7240
23	CG13029	DRSC09909	2.22e5	2.26e5	2.84e5	2.66e5	11255
24	RIC-3	DRSC04243	1.05e5	99575	80570	64295	5135
25	RIC-3	DRSC04543	67500	44530	49335	64875	3800
26	CG1492	DRSC19605	1.22e5	1.34e5	2.92e5	2.29e5	9280
27	CG13360	DRSC18536	1.85e5 (active)	2.11e5	2.57e5	2.52e5	15545
28	CG4467	DRSC15585	1.57e5	1.75e5	1.92e5	2.16e5	12250
29	CG15717	DRSC19684	1.10e5	95820	1.64e5	1.37e5	7535
30	Psi	DRSC07519	63460	77890	1.62e5	1.77e5	8220
31	CG17290	DRSC06662	72870	72410	78320	77840	6230
32	CG10738	DRSC09792	1.37e5	1.29e5	2.09e5	1.67e5	8335
33	lsn	DRSC16081	1.51e5	1.18e5	1.78e5	1.24e5	9900
34	Pgam5	DRSC18551	1.83e5	2.17e5	3.05e5	2.93e5	13900
35	DNaseII	DRSC16310	2.38e5	2.06e5	2.52e5	2.52e5	19140
36	CTCF	DRSC11004	1.07e5	1.24e5	1.03e5	53275	11790
37	CG10752	DRSC09799	1.59e5	1.33e5	1.15e5	79800	15700
38	sad	DRSC16630	30255	31005	37695	24435	2040
39	sty	DRSC08737	1.13e5	1.29e5	2.06e5	1.78e5	4540
40	CG2127	DRSC06821	2.11e5	1.70e5	2.33e5	1.78e5	15020
41	CG13285	DRSC09960	3.22e5	2.93e5	3.48e5	3.64e5	15430
42	CG17169	DRSC20905	68180	69075	87770	1.02e5	7650
43	BckdhA	DRSC16395	79670	62095	68655	57715	4930
44	Ir41a	DRSC04730	1.85e5	2.07e5	2.40e5	2.55e5	12292
45	Ir41a	DRSC04875	1.70e5	1.62e5	1.56e5	1.49e5	10735
46	CG34228	DRSC05300	2.47e5	2.00e5	2.22e5	2.32e5	23705
47	CG15308	DRSC17995	79440	97210	1.05e5	1.24e5	6295
48	Iru	DRSC14457	1.23e5	1.20e5	81975	62555	10105
49	CG11811	DRSC09862	1.92e5	1.73e5	3.48e5	2.74e5	9790
50	Prx2	DRSC20256	1.21e5	1.16e5	1.94e5	1.69e5	8475
